{"source": "paper PMC12304293", "about": "“Combatting virulent gut bacteria by inhibiting the biosynthesis of a two-component lanthipeptide toxin” (Nature Communications, 2025)", "tested_on": "E. faecalis FA2-2 (pAM714), E. faecalis ATCC 29212", "format": "cell-based, Enterococcus faecalis", "settings": "trials 1-3; for growth curve reading, ATCC 29212 +9: E. faecalis ATCC 29212 with 9; for growth curve reading, pAM714 +9: E. faecalis pAM714 with 9", "description": "To a 96-well plate, BHI media was added containing 200 µM of inhibitor 9. An overnight culture of E. faecalis was diluted to a concentration of 10^6 CFU/mL and an equal volume of this culture was added to the well containing inhibitor. A growth control was prepared by combining the diluted bacterial cells with an equal volume of sterile BHI. A sterility control well was filled with sterile BHI to the same volume. The 96-well plate was transferred to a plate reader preheated to 37 °C and the plate was shaken continuously. The OD600 of each well was measured over the course of 24 h. Uncorrected OD600 values were plotted as a function of time. […]\nor B) E. faecalis ATCC 29212. Wells containing B HI media were inocul ated with 1 x 106 C F U / m L of E. faecalis .I nhibitor 9 was added to achieve a well concentration of 100 µM. A growth control well not containing 9 an d a sterile control not co ntaining bacteria were s et up on the same plate.\nThe plate was incubated with shaking at 37 ̊C and the OD600 was measured every 30 min for 18h.\nThis experiment was conducted on three biological samples (n = 3). Error bars represent the standard of devi ation and are c enter ed at the me an. Source data are p rovided as a Source Data file. […]", "note": "“And” between values parts separate entries of the source, which are not always exact repeats. Identical values can stand only once. Like-named read-outs stand apart in the source and are kept apart here. The source gives many values for each of these; only a part stands here. Non-standard residues stand in square brackets, D forms with d. Residues, ends and D or L forms follow the SMILES beside them. *: point of attachment. boroGlu = O=C(O)CC[C@H](N*)B(O)O; Gly(cPr) = N[C@H](C(=O)O)C1CC1"}
{"smiles": "CC(=O)NCC(=O)N[C@@H](CC(=O)O)C(=O)N[C@H](C(=O)N[C@@H](CCC(N)=O)C(=O)N[C@@H](C)C(=O)N[C@@H](CCC(=O)O)B(O)O)C1CC1", "note": "[Compound 9] (Ac-GD[Gly(cPr)]QA-boroGlu)", "values": [{"measurement": "growth curve reading, ATCC 29212 +9", "setting": "time 2 h", "result": "0.113 and 0.1202 and 0.1066"}, {"measurement": "growth curve reading, ATCC 29212 +9", "setting": "time 3 h", "result": "0.1514 and 0.1613 and 0.1459"}, {"measurement": "growth curve reading, pAM714 +9", "setting": "time 2 h", "result": "0.1067 and 0.1037 and 0.1046"}, {"measurement": "growth curve reading, pAM714 +9", "setting": "time 3 h", "result": "0.1299 and 0.129 and 0.1314"}]}
